# Reference: PMC9496622
# By UniProt entry, the sequences of proteins in these tests, tags left out.
# UniProt P55884: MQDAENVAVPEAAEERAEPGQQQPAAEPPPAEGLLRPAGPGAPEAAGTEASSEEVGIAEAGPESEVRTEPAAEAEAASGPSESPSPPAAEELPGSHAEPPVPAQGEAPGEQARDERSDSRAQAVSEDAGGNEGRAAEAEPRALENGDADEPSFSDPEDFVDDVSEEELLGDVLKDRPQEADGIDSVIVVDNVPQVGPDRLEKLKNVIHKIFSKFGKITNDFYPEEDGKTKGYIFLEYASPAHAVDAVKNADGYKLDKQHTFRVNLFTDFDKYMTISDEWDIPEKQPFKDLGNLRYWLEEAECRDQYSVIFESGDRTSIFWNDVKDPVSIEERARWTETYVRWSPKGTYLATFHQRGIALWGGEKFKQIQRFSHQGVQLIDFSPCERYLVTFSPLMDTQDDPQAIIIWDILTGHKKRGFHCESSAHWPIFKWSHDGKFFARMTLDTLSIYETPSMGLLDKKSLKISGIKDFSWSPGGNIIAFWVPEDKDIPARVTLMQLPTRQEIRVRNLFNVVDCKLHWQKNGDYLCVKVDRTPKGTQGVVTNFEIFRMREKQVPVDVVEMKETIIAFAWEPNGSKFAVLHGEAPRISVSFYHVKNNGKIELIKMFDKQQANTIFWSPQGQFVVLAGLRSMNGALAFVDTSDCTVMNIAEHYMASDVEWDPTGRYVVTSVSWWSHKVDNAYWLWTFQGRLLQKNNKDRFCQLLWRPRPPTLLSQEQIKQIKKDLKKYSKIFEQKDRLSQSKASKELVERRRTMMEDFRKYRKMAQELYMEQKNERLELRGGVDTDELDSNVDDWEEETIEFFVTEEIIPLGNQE
# UniProt Q9UBQ5: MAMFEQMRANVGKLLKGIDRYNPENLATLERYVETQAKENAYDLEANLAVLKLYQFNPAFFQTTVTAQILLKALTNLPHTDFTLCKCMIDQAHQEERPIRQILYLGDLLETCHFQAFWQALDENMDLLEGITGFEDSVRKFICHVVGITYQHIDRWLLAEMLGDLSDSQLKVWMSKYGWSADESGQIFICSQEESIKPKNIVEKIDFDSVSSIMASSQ
# UniProt O15371: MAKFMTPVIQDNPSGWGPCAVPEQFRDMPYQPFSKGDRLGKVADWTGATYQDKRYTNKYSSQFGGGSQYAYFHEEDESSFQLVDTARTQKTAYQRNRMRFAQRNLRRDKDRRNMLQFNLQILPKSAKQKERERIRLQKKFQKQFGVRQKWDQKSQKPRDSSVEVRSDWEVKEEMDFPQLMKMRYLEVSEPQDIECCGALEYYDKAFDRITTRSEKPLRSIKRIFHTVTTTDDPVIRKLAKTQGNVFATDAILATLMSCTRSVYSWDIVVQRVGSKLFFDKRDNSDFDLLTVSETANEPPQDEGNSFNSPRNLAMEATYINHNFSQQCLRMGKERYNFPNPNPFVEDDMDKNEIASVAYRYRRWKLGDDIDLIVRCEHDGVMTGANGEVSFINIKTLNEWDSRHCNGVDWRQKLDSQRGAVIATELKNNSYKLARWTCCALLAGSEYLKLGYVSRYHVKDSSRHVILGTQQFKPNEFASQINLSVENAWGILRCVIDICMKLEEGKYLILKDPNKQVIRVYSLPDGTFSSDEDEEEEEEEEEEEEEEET
# Results are given in words; binding and its absence hold for the method and conditions named. In cells and extracts the contact can be indirect. Some entries that bind do so weakly or less than the wild type.
# Target: eukaryotic translation initiation factor 3 (eIF3) subunit b (human (endogenous in HEK293FT)) (UniProt P55884)
# Assay: co-IP; endogenous eIF3 complex immunopurified from extracts of HEK293FT cells cross-linked with 0.2% formaldehyde; anti-eIF3b antibody (Bethyl A301-761A) on protein A uMACS magnetic beads; Lysis Buffer 50 mM Tris-HCl pH 8, 150 mM NaCl, 1% Triton X-100; four washes, elution in Laemmli buffer, Western blotting; control without antibody
row,binding,Substance
1,binds,eukaryotic translation initiation factor 3 (eIF3) subunit k (from UniProt Q9UBQ5 1-218)
2,binds,eukaryotic translation initiation factor 3 (eIF3) subunit d (from UniProt O15371 1-548)
